# Some of the results follow. Most of these values are background signal.
# B1: 4-173.1 (protein)
# chain 1: QLQLQESGPGLVKPSETLSLTCAVSGASISSNYWSWIRQAPGKGLEWIGRISGSSGSTDYNPSLKSRVTISTDTSKNQFSLKLNSVTAADTAVYYCARVSYWGHYGDYWGQGVLVTVSS
# chain 2: QPVLTQPSSHSASPGAPARLTCTLSSGFSVGDFWIRWYQQKPGSPPRYLLYYHSDSDKHQGSGVPSRFSGSNDASANAGILHISGLQPEDEADYYCCTWHGNSKTQIFGAGTRLTVL
# Assays:
# Test in all cases: fluorescence intensity of antibody binding to polysaccharide-coupled beads; higher = stronger binding
# [1] = biological target: pneumococcal polysaccharide C-Poly-1
# Procedure: (§1)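 Recombinant rhesus-murine chimeric IgG1 antibodies were tested against antigen-coupled MagPlex beads in a 96-plex Luminex direct immunoassay (dLIA). The beads carried pneumococcal capsular polysaccharides of 93 serotypes plus C-polysaccharides. Antibody was added at 0.1–12,500 ng/mL for 1 h, then PE anti-mouse IgG, and net MFI was read on a Bio-Plex 3D. Only the rhesus variable regions are printed; constant regions are murine IgG1/kappa/lambda, and the signal peptide is MGWSCIILFLVATATGVHS.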
# [2] = biological target: pneumococcal polysaccharide C-Poly-2
# Procedure: as §1
# [3] = biological target: pneumococcal polysaccharide Pn1
# Procedure: as §1
# [4] = biological target: pneumococcal polysaccharide Pn10A
# Procedure: as §1
# [5] = biological target: pneumococcal polysaccharide Pn10B
# Procedure: as §1
# [6] = biological target: pneumococcal polysaccharide Pn10C
# Procedure: as §1
# [7] = biological target: pneumococcal polysaccharide Pn10F
# Procedure: as §1
# [8] = biological target: pneumococcal polysaccharide Pn11A
# Procedure: as §1
# [9] = biological target: pneumococcal polysaccharide Pn11B
# Procedure: as §1
# [10] = biological target: pneumococcal polysaccharide Pn11C
# Procedure: as §1
# [11] = biological target: pneumococcal polysaccharide Pn11D
# Procedure: as §1
# [12] = biological target: pneumococcal polysaccharide Pn11F
# Procedure: as §1
# [13] = biological target: pneumococcal polysaccharide Pn12A
# Procedure: as §1
# [14] = biological target: pneumococcal polysaccharide Pn12B
# Procedure: as §1
# [15] = biological target: pneumococcal polysaccharide Pn12F
# Procedure: as §1
# [16] = biological target: pneumococcal polysaccharide Pn13
# Procedure: as §1
# [17] = biological target: pneumococcal polysaccharide Pn14
# Procedure: as §1
# [18] = biological target: pneumococcal polysaccharide Pn15A
# Procedure: as §1
# [19] = biological target: pneumococcal polysaccharide Pn15B
# Procedure: as §1
# [20] = biological target: pneumococcal polysaccharide Pn15C
# Procedure: as §1
# [21] = biological target: pneumococcal polysaccharide Pn15F
# Procedure: as §1
# [22] = biological target: pneumococcal polysaccharide Pn16A
# Procedure: as §1
# [23] = biological target: pneumococcal polysaccharide Pn16F
# Procedure: as §1
# [24] = antibody concentration 0.1 ng/mL
# [25] = antibody concentration 0.534724 ng/mL
# [26] = antibody concentration 2.8593 ng/mL
# [27] = antibody concentration 15.2894 ng/mL
# [28] = antibody concentration 81.7561 ng/mL
# [29] = antibody concentration 437.17 ng/mL
# [30] = antibody concentration 2337.65 ng/mL
# [31] = antibody concentration 12500 ng/mL
binder,measurement,setting,value
B1,fluorescence intensity,[1]; [24],25.8 MFI
same,fluorescence intensity,[1]; [25],28 MFI
same,fluorescence intensity,[1]; [26],28 MFI
same,fluorescence intensity,[1]; [27],28 MFI
same,fluorescence intensity,[1]; [28],26.5 MFI
same,fluorescence intensity,[1]; [29],30 MFI
same,fluorescence intensity,[1]; [30],32.5 MFI
same,fluorescence intensity,[1]; [31],68.5 MFI
same,fluorescence intensity,[2]; [24],21.5 MFI
same,fluorescence intensity,[2]; [25],21 MFI
same,fluorescence intensity,[2]; [26],22.5 MFI
same,fluorescence intensity,[2]; [27],21 MFI
same,fluorescence intensity,[2]; [28],22 MFI
same,fluorescence intensity,[2]; [29],24 MFI
same,fluorescence intensity,[2]; [30],28.5 MFI
same,fluorescence intensity,[2]; [31],58.5 MFI
same,fluorescence intensity,[3]; [24],15.5 MFI
same,fluorescence intensity,[3]; [25],14.5 MFI
same,fluorescence intensity,[3]; [26],13.5 MFI
same,fluorescence intensity,[3]; [27],15 MFI
same,fluorescence intensity,[3]; [28],15 MFI
same,fluorescence intensity,[3]; [29],15.5 MFI
same,fluorescence intensity,[3]; [30],18 MFI
same,fluorescence intensity,[3]; [31],23.8 MFI
same,fluorescence intensity,[4]; [24],26.5 MFI
same,fluorescence intensity,[4]; [25],27.2 MFI
same,fluorescence intensity,[4]; [26],26 MFI
same,fluorescence intensity,[4]; [27],26.5 MFI
same,fluorescence intensity,[4]; [28],27 MFI
same,fluorescence intensity,[4]; [29],27 MFI
same,fluorescence intensity,[4]; [30],26.5 MFI
same,fluorescence intensity,[4]; [31],32 MFI
same,fluorescence intensity,[5]; [24],26 MFI
same,fluorescence intensity,[5]; [25],23.5 MFI
same,fluorescence intensity,[5]; [26],21.5 MFI
same,fluorescence intensity,[5]; [27],25 MFI
same,fluorescence intensity,[5]; [28],23.8 MFI
same,fluorescence intensity,[5]; [29],23.2 MFI
same,fluorescence intensity,[5]; [30],25 MFI
same,fluorescence intensity,[5]; [31],28.5 MFI
same,fluorescence intensity,[6]; [24],16.5 MFI
same,fluorescence intensity,[6]; [25],18.5 MFI
same,fluorescence intensity,[6]; [26],19 MFI
same,fluorescence intensity,[6]; [27],16.8 MFI
same,fluorescence intensity,[6]; [28],17 MFI
same,fluorescence intensity,[6]; [29],17 MFI
same,fluorescence intensity,[6]; [30],18.5 MFI
same,fluorescence intensity,[6]; [31],19.8 MFI
same,fluorescence intensity,[7]; [24],20.5 MFI
same,fluorescence intensity,[7]; [25],20 MFI
same,fluorescence intensity,[7]; [26],20.5 MFI
same,fluorescence intensity,[7]; [27],19.8 MFI
same,fluorescence intensity,[7]; [28],20 MFI
same,fluorescence intensity,[7]; [29],21.5 MFI
same,fluorescence intensity,[7]; [30],19.5 MFI
same,fluorescence intensity,[7]; [31],24 MFI
same,fluorescence intensity,[8]; [24],29 MFI
same,fluorescence intensity,[8]; [25],29.5 MFI
same,fluorescence intensity,[8]; [26],29.2 MFI
same,fluorescence intensity,[8]; [27],29 MFI
same,fluorescence intensity,[8]; [28],27.2 MFI
same,fluorescence intensity,[8]; [29],32 MFI
same,fluorescence intensity,[8]; [30],34.5 MFI
same,fluorescence intensity,[8]; [31],42.8 MFI
same,fluorescence intensity,[9]; [24],24 MFI
same,fluorescence intensity,[9]; [25],28 MFI
same,fluorescence intensity,[9]; [26],24 MFI
same,fluorescence intensity,[9]; [27],28.2 MFI
same,fluorescence intensity,[9]; [28],26.5 MFI
same,fluorescence intensity,[9]; [29],28 MFI
same,fluorescence intensity,[9]; [30],27.5 MFI
same,fluorescence intensity,[9]; [31],36 MFI
same,fluorescence intensity,[10]; [24],23 MFI
same,fluorescence intensity,[10]; [25],22.5 MFI
same,fluorescence intensity,[10]; [26],24.8 MFI
same,fluorescence intensity,[10]; [27],23.5 MFI
same,fluorescence intensity,[10]; [28],22 MFI
same,fluorescence intensity,[10]; [29],23.5 MFI
same,fluorescence intensity,[10]; [30],26.5 MFI
same,fluorescence intensity,[10]; [31],59.5 MFI
same,fluorescence intensity,[11]; [24],24.5 MFI
same,fluorescence intensity,[11]; [25],25 MFI
same,fluorescence intensity,[11]; [26],25.2 MFI
same,fluorescence intensity,[11]; [27],25 MFI
same,fluorescence intensity,[11]; [28],23.5 MFI
same,fluorescence intensity,[11]; [29],24 MFI
same,fluorescence intensity,[11]; [30],25 MFI
same,fluorescence intensity,[11]; [31],39.5 MFI
same,fluorescence intensity,[12]; [24],14.8 MFI
same,fluorescence intensity,[12]; [25],14.5 MFI
same,fluorescence intensity,[12]; [26],16 MFI
same,fluorescence intensity,[12]; [27],14.5 MFI
same,fluorescence intensity,[12]; [28],15 MFI
same,fluorescence intensity,[12]; [29],13.2 MFI
same,fluorescence intensity,[12]; [30],15.2 MFI
same,fluorescence intensity,[12]; [31],21.5 MFI
same,fluorescence intensity,[13]; [24],18 MFI
same,fluorescence intensity,[13]; [25],14.2 MFI
same,fluorescence intensity,[13]; [26],17.5 MFI
same,fluorescence intensity,[13]; [27],16.5 MFI
same,fluorescence intensity,[13]; [28],16 MFI
same,fluorescence intensity,[13]; [29],17.5 MFI
same,fluorescence intensity,[13]; [30],19 MFI
same,fluorescence intensity,[13]; [31],25.5 MFI
same,fluorescence intensity,[14]; [24],17.2 MFI
same,fluorescence intensity,[14]; [25],15 MFI
same,fluorescence intensity,[14]; [26],16.5 MFI
same,fluorescence intensity,[14]; [27],17.5 MFI
same,fluorescence intensity,[14]; [28],16 MFI
same,fluorescence intensity,[14]; [29],17 MFI
same,fluorescence intensity,[14]; [30],18.5 MFI
same,fluorescence intensity,[14]; [31],25 MFI
same,fluorescence intensity,[15]; [24],19.8 MFI
same,fluorescence intensity,[15]; [25],19.2 MFI
same,fluorescence intensity,[15]; [26],20.5 MFI
same,fluorescence intensity,[15]; [27],19 MFI
same,fluorescence intensity,[15]; [28],19.5 MFI
same,fluorescence intensity,[15]; [29],18.2 MFI
same,fluorescence intensity,[15]; [30],22.2 MFI
same,fluorescence intensity,[15]; [31],28.8 MFI
same,fluorescence intensity,[16]; [24],19 MFI
same,fluorescence intensity,[16]; [25],19.5 MFI
same,fluorescence intensity,[16]; [26],21 MFI
same,fluorescence intensity,[16]; [27],19.5 MFI
same,fluorescence intensity,[16]; [28],19 MFI
same,fluorescence intensity,[16]; [29],20 MFI
same,fluorescence intensity,[16]; [30],20.8 MFI
same,fluorescence intensity,[16]; [31],23.5 MFI
same,fluorescence intensity,[17]; [24],14.5 MFI
same,fluorescence intensity,[17]; [25],15.5 MFI
same,fluorescence intensity,[17]; [26],15.5 MFI
same,fluorescence intensity,[17]; [27],15.5 MFI
same,fluorescence intensity,[17]; [28],16 MFI
same,fluorescence intensity,[17]; [29],17 MFI
same,fluorescence intensity,[17]; [30],22.2 MFI
same,fluorescence intensity,[17]; [31],47.8 MFI
same,fluorescence intensity,[18]; [24],13.5 MFI
same,fluorescence intensity,[18]; [25],14 MFI
same,fluorescence intensity,[18]; [26],13.5 MFI
same,fluorescence intensity,[18]; [27],13.5 MFI
same,fluorescence intensity,[18]; [28],12.5 MFI
same,fluorescence intensity,[18]; [29],12.5 MFI
same,fluorescence intensity,[18]; [30],14.5 MFI
same,fluorescence intensity,[18]; [31],15 MFI
same,fluorescence intensity,[19]; [24],19 MFI
same,fluorescence intensity,[19]; [25],19 MFI
same,fluorescence intensity,[19]; [26],17.5 MFI
same,fluorescence intensity,[19]; [27],17.8 MFI
same,fluorescence intensity,[19]; [28],20 MFI
same,fluorescence intensity,[19]; [29],19.5 MFI
same,fluorescence intensity,[19]; [30],23.5 MFI
same,fluorescence intensity,[19]; [31],27 MFI
same,fluorescence intensity,[20]; [24],17.8 MFI
same,fluorescence intensity,[20]; [25],17.5 MFI
same,fluorescence intensity,[20]; [26],16.5 MFI
same,fluorescence intensity,[20]; [27],17 MFI
same,fluorescence intensity,[20]; [28],18.2 MFI
same,fluorescence intensity,[20]; [29],19.2 MFI
same,fluorescence intensity,[20]; [30],19.5 MFI
same,fluorescence intensity,[20]; [31],24.5 MFI
same,fluorescence intensity,[21]; [24],18.5 MFI
same,fluorescence intensity,[21]; [25],18.5 MFI
same,fluorescence intensity,[21]; [26],18.8 MFI
same,fluorescence intensity,[21]; [27],17.5 MFI
same,fluorescence intensity,[21]; [28],17.8 MFI
same,fluorescence intensity,[21]; [29],18.5 MFI
same,fluorescence intensity,[21]; [30],19.2 MFI
same,fluorescence intensity,[21]; [31],24 MFI
same,fluorescence intensity,[22]; [24],16 MFI
same,fluorescence intensity,[22]; [25],14 MFI
same,fluorescence intensity,[22]; [26],15 MFI
same,fluorescence intensity,[22]; [27],16 MFI
same,fluorescence intensity,[22]; [28],14 MFI
same,fluorescence intensity,[22]; [29],16.8 MFI
same,fluorescence intensity,[22]; [30],15 MFI
same,fluorescence intensity,[22]; [31],21 MFI
same,fluorescence intensity,[23]; [24],25.5 MFI
same,fluorescence intensity,[23]; [25],26 MFI
same,fluorescence intensity,[23]; [26],25 MFI
same,fluorescence intensity,[23]; [27],25.8 MFI

# 2 entries from above, with tabs:
binder	measurement	setting	value
B1	fluorescence intensity	[3]; [28]	15 MFI
same	fluorescence intensity	[18]; [29]	12.5 MFI

# Quoted at random: 5 records from the list
binder,measurement,setting,value
B1,fluorescence intensity,[15]; [29],18.2 MFI
same,fluorescence intensity,[5]; [24],26 MFI
same,fluorescence intensity,[1]; [28],26.5 MFI
same,fluorescence intensity,[6]; [24],16.5 MFI
same,fluorescence intensity,[21]; [28],17.8 MFI

# Exported with tabs: part of the list above
binder	measurement	setting	value
B1	fluorescence intensity	[11]; [24]	24.5 MFI
same	fluorescence intensity	[11]; [25]	25 MFI
same	fluorescence intensity	[11]; [26]	25.2 MFI
same	fluorescence intensity	[11]; [27]	25 MFI
